For this assay, the target named is T1, DJ1 (rat (endogenous in Sprague-Dawley rat liver)) (UniProt O88767).
T1 sequence: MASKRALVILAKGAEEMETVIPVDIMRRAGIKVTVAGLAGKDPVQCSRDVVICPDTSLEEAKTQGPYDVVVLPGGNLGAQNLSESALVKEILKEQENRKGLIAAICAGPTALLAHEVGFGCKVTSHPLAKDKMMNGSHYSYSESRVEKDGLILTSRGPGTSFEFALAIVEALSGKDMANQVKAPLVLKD
As to the kind of experiment: co-IP; tissue lysates incubated with anti-DJ1 antibody or normal mouse IgG at 4°C overnight, protein A/G agarose beads; immunoblot with monoclonal mouse anti-JNK1 antibody.

The chains behind the UniProt entries cited, without tags or fusion partners.
UniProt P49185: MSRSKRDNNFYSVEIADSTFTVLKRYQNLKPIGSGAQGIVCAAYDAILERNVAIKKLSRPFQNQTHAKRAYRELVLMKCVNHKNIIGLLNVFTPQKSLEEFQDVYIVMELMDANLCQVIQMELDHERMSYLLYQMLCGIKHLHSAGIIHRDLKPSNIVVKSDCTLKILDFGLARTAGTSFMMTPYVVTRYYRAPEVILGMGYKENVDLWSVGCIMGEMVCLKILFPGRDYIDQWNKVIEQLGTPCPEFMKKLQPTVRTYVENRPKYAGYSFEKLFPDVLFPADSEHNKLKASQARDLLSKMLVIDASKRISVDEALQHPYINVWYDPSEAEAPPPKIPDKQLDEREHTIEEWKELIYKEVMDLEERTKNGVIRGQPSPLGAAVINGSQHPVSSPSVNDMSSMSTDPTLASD

No constants are given. Whether binding was seen depends on the method and setting. In cells and extracts the contact can be indirect. Some results given as binding are weak or reduced against the parent protein; the word gives no strength.

With JNK1 (from UniProt P49185 1-411), the binding result is “binds”.

Source of the values: article PMC4420602.
